From the supplement of paper PMC12823440, “Inhibitors supercharge kinase turnover through native proteolytic circuits” (Nature, 2025)
Where a name gives a salt, the structure may show the parent alone. The list shows a part of the results. Hit calls seldom repeat between salt and free forms of one compound.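 Kinases were expressed as nanoluciferase fusions in K562 cells and luminescence was read every 4 h between 2 and 18 h as percent of control, DMSO set to 100% and a positive control to 0%. A time point counts as decreased when the signal drops significantly (2 sigma). The hit call is the authors' own, does not follow from the count of time points alone, and its rule is not shown.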

Target: SRC (UniProt P12931)
Assay: kinase-Nluc reporter destabilization hit call (1 = scored as downregulated) (binary); higher = compound decreases kinase abundance
Conditions: K562; 2-18 h

kinase-Nluc reporter destabilization hit call, inactive:
O=C(CSC1=NCCN1)NC1CCCCCC1 [ICCB-19 (hydrochloride)] (2.5 µM) 0
CCCS(=O)(=O)Nc1ccc(F)c(C(=O)c2c[nH]c3ncc(-c4ccc(Cl)cc4)cc23)c1F [Vemurafenib] (10 µM) 0
Cc1ccc(OCCSc2ncccn2)c(Br)c1 [ZLN024 (hydrochloride)] (10 µM) 0
Nc1ncnc2c1c(-c1ccc(Oc3ccccc3)cc1)nn2C1CCCC1 (2.5 µM) 0
COc1ncc(Cl)cc1S(=O)(=O)Nc1ccc(F)c(C#Cc2cnc(N)nc2)c1F (2.5 µM) 0
Cc1ccc(CNc2ncnc3ccc(-c4ccc(CO)o4)cc23)o1 (10 µM) 0
NC(=O)c1nnc(N[C@@H]2CCCC[C@@H]2N)nc1Nc1cccc2cc[nH]c12 (10 µM) 0
CNc1nc(Nc2ccc(C(=O)N3CCOCC3)cc2OC)nc2[nH]cc(Cl)c12 (2.5 µM) 0
CCNc1nc(Nc2cc(F)c(C(=O)N3CCOCC3)cc2OC)ncc1C(F)(F)F [GNE-7915 (tosylate)] (10 µM) 0
CCN1CCN(Cc2ccc(Nc3ncc(F)c(-c4cc(F)c5nc(C)n(C(C)C)c5c4)n3)nc2)CC1 [Abemaciclib] (2 µM) 0
COCCNc1nc2ccc(C#CC3(O)CCCCC3)cc2n1-c1ccnc(N)n1 (10 µM) 0
OCCn1cc(-c2ccc3c(c2)CC/C3=N\O)c(-c2ccncc2)n1 (10 µM) 0
O=C1N[C@@H](Cc2c[nH]c3ccccc23)C(=O)N2CCC[C@@H]12 [Brevianamide F] (10 µM) 0
Cn1nccc1Nc1nccc(-c2ccn([C@H](CO)c3ccc(Cl)c(F)c3)c(=O)c2)n1 [Ravoxertinib] (10 µM) 0
O=C(NCCN1CCOCC1)c1cc2c(Oc3ccc(NC(=O)C4(C(=O)Nc5ccc(F)cc5)CC4)cc3)ccnc2[nH]1 [Tyrosine kinase inhibitor] (10 µM) 0
COc1cc2c(N3CCN(C(=O)Nc4ccc(OC(C)C)cc4)CC3)ncnc2cc1OCCCN1CCCCC1 [Tandutinib (hydrochloride)] (10 µM) 0
COc1cc(/C=C/C(=O)NCC(O)c2ccc(O)cc2)ccc1O (stereo unspecified) [N-Feruloyloctopamine] (2.5 µM) 0
COc1cc2nccc(Oc3ccc(NC(=O)NC4CC4)c(Cl)c3)c2cc1C(N)=O [Lenvatinib (mesylate)] (10 µM) 0
CN1CCN(c2cccc(Nc3nc4c(-c5ccc(S(C)(=O)=O)cc5)cccn4n3)c2)CC1 (10 µM) 0
C=C(CC[C@@H](C(=O)O)[C@H]1[C@H](O)C[C@@]2(C)C3=C(CC[C@]12C)[C@@]1(C)CC[C@H](OC(C)=O)C(C)(C)[C@@H]1CC3)C(C)C [Pachymic acid] (10 µM) 0
O=c1[nH]c(=O)n([C@@H]2O[C@H](CO)[C@@H](O)[C@@H]2O)cc1/C=C/Br [Sorivudine] (10 µM) 0
NC(=O)c1ccc(-c2nc(-c3ccc4c(c3)OCCO4)c(-c3ccccn3)[nH]2)cc1 (10 µM) 0
CC#CC(=O)Nc1ccc2ncnc(Nc3cccc(Br)c3)c2c1 (10 µM) 0
CCc1c(C(=O)NNC(=O)C(O)c2cc(F)cc(F)c2)ccc(O)c1C (stereo unspecified) (10 µM) 0
CC(=O)c1c(C)cc2cccc(O)c2c1O [Nepodin] (10 µM) 0
Cc1c(-c2c(F)cc(C(N)=O)c3[nH]c4c(c23)CC[C@H](C(C)(C)O)C4)cccc1-n1c(=O)c2cccc(F)c2n(C)c1=O (2.5 µM) 0
CCc1cc2c(cc1N1CCC(N3CCOCC3)CC1)C(C)(C)c1[nH]c3cc(C#N)ccc3c1C2=O [Alectinib] (10 µM) 0
FC(F)c1nc2ccccc2n1-c1nc(N2CCOCC2)nc(N2CCOCC2)n1 (2 µM) 0
FC(F)(c1ccc2ncccc2c1)c1nnc2ccc(-c3ccncc3)nn12 (10 µM) 0
Cn1cc(-c2cnn3c(N)c(Br)c([C@@H]4CCCNC4)nc23)cn1 (2.5 µM) 0
C[C@@H]1COCCN1c1cc(C2([S@@](C)(=N)=O)CC2)nc(-c2ccnc3[nH]ccc23)n1 [(S)-Ceralasertib] (10 µM) 0

Reprinted at random: 2 records from the list.
kinase-Nluc reporter destabilization hit call, inactive:
COc1ncc(Cl)cc1S(=O)(=O)Nc1ccc(F)c(C#Cc2cnc(N)nc2)c1F (2.5 µM) 0
CN1CCN(c2cccc(Nc3nc4c(-c5ccc(S(C)(=O)=O)cc5)cccn4n3)c2)CC1 (10 µM) 0
